Consider two sequences from doi:10.1101/108225.

For at least one entry, the source does not settle the construct or the ends of the probe. Where a protein sequence is shown, tags need not be part of it.

The target in this data set is T1, GST-SMA-4 MH1 domain (Caenorhabditis elegans) (UniProt P45897).
T1 sequence (looked up, limits assumed): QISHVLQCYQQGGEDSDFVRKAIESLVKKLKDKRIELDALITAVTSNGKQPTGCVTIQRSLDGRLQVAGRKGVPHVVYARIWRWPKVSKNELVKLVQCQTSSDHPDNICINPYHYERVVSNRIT
Kind of data set: EMSA.

With “GGTGAGACAAGCAATGAGAATAGACACACA (double strand) [Probe 4 (col-p)]”, the binding result is “binds”.

As for “ACGGTTTCAAGGTCTGTCTCCTCGAACACG (double strand) [Probe 3 (col-p)]”, the binding result is “binds”.
